Experimental data as given in article PMC7573169.
No constants are given. Whether binding was seen depends on the method and setting. Binding seen in cells or lysates may run through a third protein. Binding can be weak; no strength is given.

Amino acid sequences for entries named in this document (tags omitted). A change or cut given only in a name is not applied to a line headed by its entry.
UniProt Q99988: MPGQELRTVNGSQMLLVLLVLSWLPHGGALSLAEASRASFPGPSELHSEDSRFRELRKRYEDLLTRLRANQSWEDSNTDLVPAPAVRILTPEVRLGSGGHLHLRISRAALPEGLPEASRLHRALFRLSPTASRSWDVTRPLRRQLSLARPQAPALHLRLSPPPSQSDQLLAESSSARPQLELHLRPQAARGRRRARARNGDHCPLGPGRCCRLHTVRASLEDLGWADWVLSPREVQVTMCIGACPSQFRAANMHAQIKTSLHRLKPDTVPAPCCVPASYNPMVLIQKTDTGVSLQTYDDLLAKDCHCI

Target: T1, sterol regulatory element-binding protein cleavage-activating protein (SCAP) (human (endogenous in esophageal cancer cells)) (UniProt Q12770)
T1 sequence: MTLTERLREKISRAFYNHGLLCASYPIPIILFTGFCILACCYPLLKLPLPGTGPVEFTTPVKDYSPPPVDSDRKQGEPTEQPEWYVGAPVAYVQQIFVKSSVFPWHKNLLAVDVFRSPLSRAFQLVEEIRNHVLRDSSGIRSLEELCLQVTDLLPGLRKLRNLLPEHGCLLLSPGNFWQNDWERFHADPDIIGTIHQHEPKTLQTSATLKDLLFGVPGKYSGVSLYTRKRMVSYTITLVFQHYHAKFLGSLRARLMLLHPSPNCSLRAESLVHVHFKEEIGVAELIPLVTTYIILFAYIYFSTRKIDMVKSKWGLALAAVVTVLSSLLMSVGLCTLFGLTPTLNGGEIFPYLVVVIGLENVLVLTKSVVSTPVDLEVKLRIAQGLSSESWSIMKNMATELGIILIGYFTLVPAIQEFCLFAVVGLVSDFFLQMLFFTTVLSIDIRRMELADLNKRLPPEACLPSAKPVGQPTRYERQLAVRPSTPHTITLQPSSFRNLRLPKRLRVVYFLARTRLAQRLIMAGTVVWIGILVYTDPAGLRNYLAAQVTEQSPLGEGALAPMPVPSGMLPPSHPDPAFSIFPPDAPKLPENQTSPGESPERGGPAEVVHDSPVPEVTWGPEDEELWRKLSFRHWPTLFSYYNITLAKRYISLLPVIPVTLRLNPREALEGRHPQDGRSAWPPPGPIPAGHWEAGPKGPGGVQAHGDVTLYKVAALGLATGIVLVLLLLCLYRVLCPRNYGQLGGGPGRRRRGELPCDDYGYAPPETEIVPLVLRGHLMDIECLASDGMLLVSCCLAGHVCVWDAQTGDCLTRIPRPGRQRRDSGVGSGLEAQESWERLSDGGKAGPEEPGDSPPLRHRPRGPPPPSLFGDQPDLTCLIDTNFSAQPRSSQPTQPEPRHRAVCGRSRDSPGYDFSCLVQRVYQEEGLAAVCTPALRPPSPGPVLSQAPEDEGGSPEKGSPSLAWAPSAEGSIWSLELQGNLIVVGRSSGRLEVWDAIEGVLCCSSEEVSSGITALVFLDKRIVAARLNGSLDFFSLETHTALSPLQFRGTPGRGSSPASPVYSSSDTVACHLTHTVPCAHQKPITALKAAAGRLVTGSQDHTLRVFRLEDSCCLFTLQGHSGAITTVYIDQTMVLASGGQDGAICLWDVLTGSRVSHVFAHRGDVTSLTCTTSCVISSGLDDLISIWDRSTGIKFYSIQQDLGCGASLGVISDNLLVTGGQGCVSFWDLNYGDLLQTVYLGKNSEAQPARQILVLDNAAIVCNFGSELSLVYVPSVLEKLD
Test: co-IP; cell lysates incubated with antibodies against GDF15 or SCAP at 4°C overnight, then Protein A/G PLUS-Agarose beads for 10 h; 4 washes with lysis buffer; western blot

Question: With “Growth differentiation factor 15 (GDF15) (from UniProt Q99988)” as the substance, how does the binding read?
Answer: Its binding is “binds”.
